This is one part of the list. Repeats are few or missing, and single values can be far off.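 The apoptosis fraction was the count of cleaved-PARP antibody-stained nuclei relative to all DNA-stained nuclei, imaged in 1,536-well plates. Screening doses were set so most cells survived, and baseline and induced cleaved-PARP levels vary greatly across cell lines.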

We go through 27 molecules from the supplement of paper PMC4604168 (melanoma cell lines).

The subject of this experiment is CBRC034 (line from a melanoma biopsy). In words: cleaved PARP positive nuclei fraction relative to DMSO control; melanoma cells; higher = more apoptosis. As to conditions: library dose: low library concentration; 72 h.
On to `Cn1c(=O)n(-c2ccc(C(C)(C)C#N)cc2)c2c3cc(-c4cnc5ccccc5c4)ccc3ncc21` + CN1CCN(c2ccc3nc(-c4c(N)c5c(F)cccc5[nH]c4=O)[nH]c3c2)CC1 [Dovitinib] (first compound 0.004 µM, partner dose 0.1 µM), for which the “cleaved PARP positive nuclei fraction” value turned out to be 59.5%. With `O=C(O)c1ccc2c(c1)nc(Nc1cccc(Cl)c1)c1ccncc12` + COc1ccc(Cl)c(Nc2nc3ccccc3nc2NS(=O)(=O)c2cccc(NC(=O)C(C)(C)N)c2)c1 [XL147] (first compound 0.4 µM, partner dose 0.8 µM) the figure was 159%. With `CNC(=O)c1cc(Oc2ccc(NC(=O)Nc3ccc(Cl)c(C(F)(F)F)c3)cc2)ccn1` [sorafenib] + OCc1c[nH]c2ccccc12 [Indole-3-carbinol] (first compound 0.4 µM, partner dose 0.8 µM) the figure was 84.2%; with `CO[C@H]1C[C@@H]2CC[C@@H](C)[C@@](O)(O2)C(=O)C(=O)N2CCCC[C@H]2C(=O)O[C@H]([C@H](C)C[C@@H]2CC[C@@H](OCCO)[C@H](OC)C2)CC(=O)[C@H](C)/C=C(\C)[C@@H](O)[C@@H](OC)C(=O)[C@H](C)C[C@H](C)/C=C/C=C/C=C/1C` [everolimus] + O=C(O)c1ccc2c(c1)nc(Nc1cccc(Cl)c1)c1ccncc12 [CX4945] (first compound 0.02 µM, partner dose 0.4 µM), 87.4%. Turning to `Cn1c(=O)n(-c2ccc(C(C)(C)C#N)cc2)c2c3cc(-c4cnc5ccccc5c4)ccc3ncc21` + O=C(O)c1ccc2c(c1)nc(Nc1cccc(Cl)c1)c1ccncc12 [CX4945] (first compound 0.004 µM, partner dose 0.4 µM), the “cleaved PARP positive nuclei fraction” value was found to be 107%.

Consider `CNC(=O)c1cc(Oc2ccc(NC(=O)Nc3ccc(Cl)c(C(F)(F)F)c3)cc2)ccn1` [sorafenib] + Cn1c(Nc2ccc(C(F)(F)F)cc2)nc2cc(Oc3ccnc(-c4ncc(C(F)(F)F)[nH]4)c3)ccc21 [CHIR265] (first compound 0.4 µM, partner dose 0.08 µM), for which the “cleaved PARP positive nuclei fraction” value came to 71.2%.

As to `Cc1cc(Nc2cc(N3CCN(C)CC3)nc(/C=C/c3ccccc3)n2)n[nH]1` + NC1(c2ccc(-c3nc4ccn5c(=O)[nH]nc5c4cc3-c3ccccc3)cc2)CCC1 [MK2206] (first compound 0.04 µM, partner dose 0.4 µM), the “cleaved PARP positive nuclei fraction” value was 139%. Consider `CC(C)C[C@H](NC(=O)[C@H](Cc1ccccc1)NC(=O)c1cnccn1)B(O)O` [Bortezomib] + CS(=O)(=O)CCNCc1ccc(-c2ccc3ncnc(Nc4ccc(OCc5cccc(F)c5)c(Cl)c4)c3c2)o1 [lapatinib] (first compound 0.001 µM, partner dose 0.8 µM), for which the “cleaved PARP positive nuclei fraction” value is 91.7%.

As for `CO[C@H]1C[C@@H]2CC[C@@H](C)[C@@](O)(O2)C(=O)C(=O)N2CCCC[C@H]2C(=O)O[C@H]([C@H](C)C[C@@H]2CC[C@@H](OCCO)[C@H](OC)C2)CC(=O)[C@H](C)/C=C(\C)[C@@H](O)[C@@H](OC)C(=O)[C@H](C)C[C@H](C)/C=C/C=C/C=C/1C` [everolimus] + Cn1nnc2c(C(N)=O)ncn2c1=O [temozolomide] (first compound 0.02 µM, partner dose 2 µM), the “cleaved PARP positive nuclei fraction” value amounted to 41%. With `O=C(O)[C@@H]1[O][Sb](=[O])([O][Sb]2(=[O])[O][C@H]([C@H](O)CO)[C@H](O)[C@H](C(=O)O)[O]2)[O][C@H]([C@H](O)CO)[C@@H]1O` (some centres not stated) [stibogluconate] + C#Cc1cccc(Nc2ncnc3cc(OCCOC)c(OCCOC)cc23)c1 [erlotinib] (first compound 2 µM, partner dose 0.8 µM) the figure was 105%; with `C=C(c1ccc(C(=O)O)cc1)c1cc2c(cc1C)C(C)(C)CCC2(C)C` [Bexarotene] + Nc1nc(F)nc2c1ncn2[C@@H]1O[C@H](CO)[C@@H](O)[C@@H]1O [fludarabine] (first compound 2 µM, partner dose 0.2 µM), 34.5%; with `CNC(=O)c1cc(Oc2ccc(NC(=O)Nc3ccc(Cl)c(C(F)(F)F)c3)cc2)ccn1` [sorafenib] + C=CCNC1=C2C[C@@H](C)C[C@H](OC)[C@H](O)[C@@H](C)/C=C(\C)[C@H](OC(N)=O)[C@@H](OC)/C=C\C=C(/C)C(=O)NC(=CC1=O)C2=O [Tanespimycin] (first compound 0.4 µM, partner dose 0.002 µM), 155%. In the case of `Cn1c(=O)n(-c2ccc(C(C)(C)C#N)cc2)c2c3cc(-c4cnc5ccccc5c4)ccc3ncc21` + Nc1ncn([C@H]2C[C@H](O)[C@@H](CO)O2)c(=O)n1 [decitabine] (first compound 0.004 µM, partner dose 0.1 µM), the “cleaved PARP positive nuclei fraction” value worked out at 44.6%. The same measure for `CC(C)C[C@H](NC(=O)[C@H](Cc1ccccc1)NC(=O)c1cnccn1)B(O)O` [Bortezomib] + C=C(c1ccc(C(=O)O)cc1)c1cc2c(cc1C)C(C)(C)CCC2(C)C [Bexarotene] (first compound 0.001 µM, partner dose 2 µM): 1870%; for `CCCS(=O)(=O)Nc1ccc(F)c(C(=O)c2c[nH]c3ncc(Cl)cc23)c1F` + COCC[n+]1c2c(n(Cc3cnccn3)c1C)C(=O)c1ccccc1C2=O [YM155] (first compound 0.08 µM, partner dose 0.0004 µM): 63.4%; for `CN1CCN(c2ccc3nc(-c4c(N)c5c(F)cccc5[nH]c4=O)[nH]c3c2)CC1` [Dovitinib] + Cn1c(Nc2ccc(C(F)(F)F)cc2)nc2cc(Oc3ccnc(-c4ncc(C(F)(F)F)[nH]4)c3)ccc21 [CHIR265] (first compound 0.1 µM, partner dose 0.08 µM): 190%. The same measure for `Cn1c(=O)n(-c2ccc(C(C)(C)C#N)cc2)c2c3cc(-c4cnc5ccccc5c4)ccc3ncc21` + Cn1nnc2c(C(N)=O)ncn2c1=O [temozolomide] (first compound 0.004 µM, partner dose 2 µM): 69.4%; for `CC(C)C[C@H](NC(=O)[C@H](Cc1ccccc1)NC(=O)c1cnccn1)B(O)O` [Bortezomib] + C[C@@H](Oc1cc(-c2cnn(C3CCNCC3)c2)cnc1N)c1c(Cl)ccc(F)c1Cl [Crizotinib] (first compound 0.001 µM, partner dose 0.2 µM): 605%.

For `O=C(O)[C@@H]1[O][Sb](=[O])([O][Sb]2(=[O])[O][C@H]([C@H](O)CO)[C@H](O)[C@H](C(=O)O)[O]2)[O][C@H]([C@H](O)CO)[C@@H]1O` (some centres not stated) [stibogluconate] + OCc1c[nH]c2ccccc12 [Indole-3-carbinol] (first compound 2 µM, partner dose 0.8 µM), the “cleaved PARP positive nuclei fraction” value stood at 44.5%. With `C=C(c1ccc(C(=O)O)cc1)c1cc2c(cc1C)C(C)(C)CCC2(C)C` [Bexarotene] + Cn1nnc2c(C(N)=O)ncn2c1=O [temozolomide] (first compound 2 µM, partner dose 2 µM) the figure was 61.4%; with `Nc1ncn([C@H]2C[C@H](O)[C@@H](CO)O2)c(=O)n1` [decitabine] + C[C@]1(c2nc3c(C(N)=O)cccc3[nH]2)CCCN1 [Veliparib] (first compound 0.1 µM, partner dose 1.4 µM), 88.1%; with `CN1CCN(c2ccc3nc(-c4c(N)c5c(F)cccc5[nH]c4=O)[nH]c3c2)CC1` [Dovitinib] + Nc1nc(F)nc2c1ncn2[C@@H]1O[C@H](CO)[C@@H](O)[C@@H]1O [fludarabine] (first compound 0.1 µM, partner dose 0.2 µM), 79.8%. As for `CO[C@H]1C[C@@H]2CC[C@@H](C)[C@@](O)(O2)C(=O)C(=O)N2CCCC[C@H]2C(=O)O[C@H]([C@H](C)C[C@@H]2CC[C@@H](OCCO)[C@H](OC)C2)CC(=O)[C@H](C)/C=C(\C)[C@@H](O)[C@@H](OC)C(=O)[C@H](C)C[C@H](C)/C=C/C=C/C=C/1C` [everolimus] + Clc1ccc(Nc2nnc(Cc3ccncc3)c3ccccc23)cc1 [vatalanib] (first compound 0.02 µM, partner dose 2 µM), the “cleaved PARP positive nuclei fraction” value was 104%. For the molecule `CO[C@H]1C[C@@H]2CC[C@@H](C)[C@@](O)(O2)C(=O)C(=O)N2CCCC[C@H]2C(=O)O[C@H]([C@H](C)C[C@@H]2CC[C@@H](OCCO)[C@H](OC)C2)CC(=O)[C@H](C)/C=C(\C)[C@@H](O)[C@@H](OC)C(=O)[C@H](C)C[C@H](C)/C=C/C=C/C=C/1C` [everolimus] + C#Cc1cccc(Nc2ncnc3cc(OCCOC)c(OCCOC)cc23)c1 [erlotinib] (first compound 0.02 µM, partner dose 0.8 µM), the “cleaved PARP positive nuclei fraction” value was 48%. Consider `CS(=O)(=O)CCNCc1ccc(-c2ccc3ncnc(Nc4ccc(OCc5cccc(F)c5)c(Cl)c4)c3c2)o1` [lapatinib] + OCc1c[nH]c2ccccc12 [Indole-3-carbinol] (first compound 0.8 µM, partner dose 0.8 µM), for which the “cleaved PARP positive nuclei fraction” value is 34%. The same measure for `C[C@@H](Oc1cc(-c2cnn(C3CCNCC3)c2)cnc1N)c1c(Cl)ccc(F)c1Cl` [Crizotinib] + Nc1ccn([C@@H]2O[C@H](CO)[C@@H](O)C2(F)F)c(=O)n1 [gemcitabine] (first compound 0.2 µM, partner dose 0.0004 µM): 75.9%. With `O=C(O)[C@@H]1[O][Sb](=[O])([O][Sb]2(=[O])[O][C@H]([C@H](O)CO)[C@H](O)[C@H](C(=O)O)[O]2)[O][C@H]([C@H](O)CO)[C@@H]1O` (some centres not stated) [stibogluconate] + COc1ccc(Cl)c(Nc2nc3ccccc3nc2NS(=O)(=O)c2cccc(NC(=O)C(C)(C)N)c2)c1 [XL147] (first compound 2 µM, partner dose 0.8 µM) the figure was 191%.
